PubChem BioAssay AID1259308 – NCATS, 2017

Assay: 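Candidate targets for better recombinant protein yield in mammalian cells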 (primary screen)
Cells: human HEK293 embryonic kidney cells stably expressing firefly luciferase (HEK-CMV-Luc2-Hygro)
Knock-down reagent: single siRNA against human genes, 0.8 pmol siRNA per well
Time to read-out: 72 h
Measured: 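Luciferase light (ONE-Glo) measured on one replicate plate set and viability (CellTiter-Glo) on the other, scaled to a negative control siRNA, with robust z-scores and luciferase per cell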
Scale: total luciferase, z-score: higher = more reporter protein produced
Active means: 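An siRNA counts as active if its total luciferase robust z-score exceeds 3; genes with two or more such siRNAs out of three were retested with fresh siRNAs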
Meaning of the calls: active = raised luciferase; inactive = no rise
The deposit covers about 59,000 reagents; this is a part drawn at random. Over the whole deposit, about 1,510 (2.6%) were called active. 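Calls use total luciferase alone and ignore viability, so some active siRNAs may act by altering cell number.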 Reagents against one gene are numbered here. Not all columns of the deposit are shown. Reagent sequences are not shown.

The opening 7 entries, ahead of the listing:
total luciferase, z-score | Call | Target gene | siRNA no.
1.99 | inactive | CLEC6A | 1
-0.64 | inactive | CLEC6A | 2
0.126 | inactive | CLEC6A | 3
-0.219 | inactive | HECW2 | 1
-0.26 | inactive | HECW2 | 2
-0.384 | inactive | HECW2 | 3
-1.19 | inactive | F10 | 1

Results, repeating the preview:
total luciferase, z-score | Call | Target gene | siRNA no.
1.99 | inactive | CLEC6A | 1
-0.64 | inactive | CLEC6A | 2
0.126 | inactive | CLEC6A | 3
-0.219 | inactive | HECW2 | 1
-0.26 | inactive | HECW2 | 2
-0.384 | inactive | HECW2 | 3
-1.19 | inactive | F10 | 1
-0.954 | inactive | F10 | 2
0.933 | inactive | F10 | 3
0.208 | inactive | ATE1 | 1
-0.299 | inactive | ATE1 | 2
1.82 | inactive | ATE1 | 3
-1.56 | inactive | TMC3 | 1
2.4 | inactive | TMC3 | 2
0.197 | inactive | TMC3 | 3
-0.373 | inactive | ZNF260 | 1
-0.687 | inactive | ZNF260 | 2
-0.853 | inactive | ZNF260 | 3
0.494 | inactive | JTB | 1
-0.832 | inactive | JTB | 2
-0.0722 | inactive | JTB | 3
2.92 | inactive | LORICRIN | 1
-0.198 | inactive | LORICRIN | 2
-0.773 | inactive | LORICRIN | 3
4.22 | active | EEFSEC | 1
2.35 | inactive | EEFSEC | 2
3.21 | active | EEFSEC | 3
-0.853 | inactive | UBR1 | 1
-0.0955 | inactive | UBR1 | 2
-0.776 | inactive | UBR1 | 3
0.271 | inactive | SBF2 | 1
0.151 | inactive | SBF2 | 2
1.55 | inactive | SBF2 | 3
-0.174 | inactive | PCDHGA9 | 1
-0.421 | inactive | PCDHGA9 | 2
0.886 | inactive | PCDHGA9 | 3
-0.836 | inactive | ST3GAL4 | 1
0.228 | inactive | ST3GAL4 | 2
-0.122 | inactive | ST3GAL4 | 3
0.255 | inactive | SORCS1 | 1
-0.518 | inactive | SORCS1 | 2
-0.845 | inactive | SORCS1 | 3
-1.1 | inactive | CT47C1 | 1
-0.518 | inactive | CT47C1 | 2
2.45 | inactive | CT47C1 | 3
-0.666 | inactive | AHSA2P | 1
1.82 | inactive | AHSA2P | 2
-0.42 | inactive | AHSA2P | 3
-0.937 | inactive | KCNJ4 | 1
-1.23 | inactive | KCNJ4 | 2
2.81 | inactive | KCNJ4 | 3
0.884 | inactive | GBA2 | 1
-1.53 | inactive | GBA2 | 2
0.0871 | inactive | GBA2 | 3
0.517 | inactive | TAF1C | 1
-1.68 | inactive | TAF1C | 2
0.668 | inactive | TAF1C | 3
